The target of assay [1] is huCdc7 (human) (UniProt O00311). Briefly: co-immunoprecipitation from co-transfected COS7 cells.
Assay [2] shares this target. Kind of assay: co-immunoprecipitation of intrinsic proteins from CEM cell extracts with anti-H37Cpep, huCdc7 immunoblot.
Assay [3] has the same target. Briefly: co-immunoprecipitation of intrinsic proteins from CEM and HeLa cells.

The chains behind the UniProt entries cited, without tags or fusion partners.
UniProt O00311: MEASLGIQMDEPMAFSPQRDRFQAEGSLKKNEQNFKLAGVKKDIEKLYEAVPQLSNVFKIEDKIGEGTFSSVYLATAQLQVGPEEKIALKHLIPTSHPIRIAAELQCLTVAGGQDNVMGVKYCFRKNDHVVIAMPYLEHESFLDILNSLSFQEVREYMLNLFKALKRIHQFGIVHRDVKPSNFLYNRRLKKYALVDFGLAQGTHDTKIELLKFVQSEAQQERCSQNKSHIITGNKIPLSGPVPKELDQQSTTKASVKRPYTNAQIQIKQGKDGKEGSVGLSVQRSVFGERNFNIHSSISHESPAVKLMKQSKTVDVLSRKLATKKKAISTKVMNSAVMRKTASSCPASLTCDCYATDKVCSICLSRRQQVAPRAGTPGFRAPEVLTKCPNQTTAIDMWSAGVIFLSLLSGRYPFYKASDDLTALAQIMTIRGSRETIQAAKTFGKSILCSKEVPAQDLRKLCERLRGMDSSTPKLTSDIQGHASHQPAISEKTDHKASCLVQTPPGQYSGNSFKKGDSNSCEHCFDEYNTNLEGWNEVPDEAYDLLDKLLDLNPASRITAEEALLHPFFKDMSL

These are yes or no findings as the source states them, for the method shown. In cells and extracts the contact can be indirect. Some entries that bind do so weakly or less than the wild type.

B1: H37 deletion derivative deltaN2 expressed in COS7 cells (protein)
chain: DKPSSMQKQTQVKLRIQTDGDKYGGTSIQLQLKEKKKKGYCECCLQKYEDLETHLLSEQHRNFAQSNQYQVVDDIVSKLVFDFVEYEKDTPKKKRIKYSVGSLSPVSASVLKKTEQKEKVELQHISQKDCQEDDTTVKEQNFLYKETQETEKKLLFISEPIPHPSNELRGLNEKMSNKCSMLSTAEDDIRQNFTQLPLHKNKQECILDISEHTLSENDLEELRVDHYKCNIQASVHVSDFSTDNSGSQPKQKSDTVLFPAKDLKEKDLHSIFTHDSGLITINSSQEHLTVQAKAPFHTPPEEPNECDFKNMDSLPSGKIHRKVKIILGRNRKENLEPNAEFDKRTEFITQEENRICSSPVQSLLDLFQTSEEKSEFLGFTSYTEKSGICNVLDIWEEENSDNLLTAFFSSPSTSTFTGF
For B1, the binding entry with huCdc7 (human) [1] is listed as “binds”.

B2: H37 deletion derivative deltaB expressed in COS7 cells (protein)
chain: MNSGAMRIHSKGHFQGGIQVKNEKNRPSLKSLKTDNRPEKSKCKPLWGKVFYLDLPSVTISEKLQKDIKDLGGRVEEFLSKDISYLISNKKEAKFAQTLGRISPVPSPESAYTAETTSPHPSHDGSSFKSPDTVCLSRGKLLVEKAIKDHDFIPSNSILSNALSWGVKILHIDDIRYYIEQKKKELYLLKKSSTSVRDGGKRVGSGAQKTRTGRLKKPFVKVEDMSQLYRPFYLQLTNMPFINYSIQKPCSPFDVDKPSSMQKQTQVKLRIQTDGDKYGGTSIQLQLKEKKKKGYCECCLQKYED
Turning to B2, the binding entry with huCdc7 (human) [1] was “binds”.

B3: human H37 protein (protein)
chain: MNSGAMRIHSKGHFQGGIQVKNEKNRPSLKSLKTDNRPEKSKCKPLWGKVFYLDLPSVTISEKLQKDIKDLGGRVEEFLSKDISYLISNKKEAKFAQTLGRISPVPSPESAYTAETTSPHPSHDGSSFKSPDTVCLSRGKLLVEKAIKDHDFIPSNSILSNALSWGVKILHIDDIRYYIEQKKKELYLLKKSSTSVRDGGKRVGSGAQKTRTGRLKKPFVKVEDMSQLYRPFYLQLTNMPFINYSIQKPCSPFDVDKPSSMQKQTQVKLRIQTDGDKYGGTSIQLQLKEKKKKGYCECCLQKYEDLETHLLSEQHRNFAQSNQYQVVDDIVSKLVFDFVEYEKDTPKKKRIKYSVGSLSPVSASVLKKTEQKEKVELQHISQKDCQEDDTTVKEQNFLYKETQETEKKLLFISEPIPHPSNELRGLNEKMSNKCSMLSTAEDDIRQNFTQLPLHKNKQECILDISEHTLSENDLEELRVDHYKCNIQASVHVSDFSTDNSGSQPKQKSDTVLFPAKDLKEKDLHSIFTHDSGLITINSSQEHLTVQAKAPFHTPPEEPNECDFKNMDSLPSGKIHRKVKIILGRNRKENLEPNAEFDKRTEFITQEENRICSSPVQSLLDLFQTSEEKSEFLGFTSYTEKSGICNVLDIWEEENSDNLLTAFFSSPSTSTFTGF
For the molecule B3, the binding entry with huCdc7 (human) [2] and with huCdc7 (human) [3] was “binds” each time.

The values are drawn from patent US6897054.
